# Primary screen of a compound library

Values are the deposited “Percent Effect”, in %. The controls that fix the scale are not given in the record; negative values are as filed. This is an unselected part of the compounds tested. Two or more numbers in one place are separate tests of the same structure; such repeats can differ widely.

Mtb cholesterol medium: 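Phenotypic screen: M. tuberculosis growth, cholesterol and DPPC medium, 4 days; the read-out is not stated. Compounds at 50 µM. Direction is inferred from retests: higher values go with more growth inhibition. Of about 69,000 compounds tested this way, about 370 (0.54%) reached 50% or more in at least one test.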
Mtb glucose medium: 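Phenotypic screen: M. tuberculosis growth, glucose 7H9 medium, 3 days; the read-out is not stated. Compounds at 50 µM. The record gives no direction; compounds that gave an IC50 in retests scored well above the rest, so higher reads as more growth inhibition. Of about 69,000 compounds tested this way, about 760 (1.1%) reached 50% or more in at least one test.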

Compound: Cc1nn(C)c(C)c1CN(C)C1CCN(c2ncnc3[nH]cnc23)CC1
Mtb cholesterol medium: -23.09%
Mtb glucose medium: -35.22%

Compound: CCc1nnc2n1CC(CNCc1nc(C)c(C)o1)CC2 (stereo not given)
Mtb cholesterol medium: -22.14%
Mtb glucose medium: -24.48%

Compound: O=C(O)C(F)(F)F.[H][C@]12C[C@H](CN(C)C)O[C@@]1([H])CN(C(=O)c1ccno1)C2
Mtb cholesterol medium: -13.11%
Mtb glucose medium: -8.317% and -34.62%

Compound: COc1ccc(NC(=O)N2CCC(c3noc(C)n3)CC2)cc1C
Mtb cholesterol medium: -3.829%
Mtb glucose medium: 18.71%

Compound: CCc1cc(NCCN2CCNC2=O)n2nccc2n1
Mtb cholesterol medium: 0.7282%
Mtb glucose medium: -4.564%

Compound: NC(=O)NC1(C(=O)N2CCc3c(Cl)cccc3C2)CCCCC1
Mtb cholesterol medium: -3.856%
Mtb glucose medium: 9.146% and -20.67%

Compound: CN(C)CC(=O)N1CCN(CC(O)c2ccc(F)cc2)CC1 (stereo not given)
Mtb cholesterol medium: -18.58%
Mtb glucose medium: -17.56% and 2.82%

Compound: O=C(O)C(F)(F)F.O=C(O)C(F)(F)F.[H][C@]12CCC[C@@H](CN3CCOCC3)[C@@]1([H])CN(Cc1csnn1)C2
Mtb cholesterol medium: -2.19% and -9.008%
Mtb glucose medium: -33.16% and -3.281%

Compound: Cc1nccn1Cc1nnc(C2CCCN(c3ncccn3)C2)n1C (stereo not given)
Mtb cholesterol medium: -26.76%
Mtb glucose medium: -36.34%

Compound: COc1ccc2c(c1)CC(NC(=O)NCc1cccs1)CO2 (stereo not given)
Mtb cholesterol medium: -11.46%
Mtb glucose medium: -18.29%

Compound: CN(c1ncnc2ccccc12)C1CCCN(c2cccnn2)C1 (stereo not given)
Mtb cholesterol medium: -0.3092% and 16.13%
Mtb glucose medium: 8.193%

Compound: CCc1noc(C(C)SCCS(C)(=O)=O)n1 (stereo not given)
Mtb cholesterol medium: 5.823%
Mtb glucose medium: 39.23%

Compound: O=C(O)C(F)(F)F.[H][C@]12CC[C@@]3(N=C(CC)N(CC)C3=O)[C@@]1([H])CN(CC1CC1)C2
Mtb cholesterol medium: -14.2%
Mtb glucose medium: -11.91%

Compound: [H][C@@]12CCN(C(=O)N3CCOCC3)[C@]1([H])C(=O)N(Cc1ccccc1)C(=O)N2
Mtb cholesterol medium: 9.049%
Mtb glucose medium: -6.465% and 1.612%

Compound: [H][C@@]12CCC(=O)N(CCCOC)[C@]1([H])CCN(c1cnc3ccccc3n1)C2
Mtb cholesterol medium: -8.803%
Mtb glucose medium: -2.592% and -5.118%

Compound: Cn1cc(NS(=O)(=O)CC2CCCCO2)cn1 (stereo not given)
Mtb cholesterol medium: 10.45%
Mtb glucose medium: 9.127%

Compound: O=C(O)C(F)(F)F.[H][C@@]12CN(C(=O)c3ccoc3C)C[C@]1([H])OCCN2c1ncccn1
Mtb cholesterol medium: 3.939%
Mtb glucose medium: 21.53%

Compound: Cc1ccc(C(=O)N2CCCC2c2nnc3n2CCCCC3)s1 (stereo not given)
Mtb cholesterol medium: -7.356%
Mtb glucose medium: 18.88%

Compound: CC(C)c1nc(C2CCCN2CCNS(C)(=O)=O)no1 (stereo not given)
Mtb cholesterol medium: 1.248%
Mtb glucose medium: -2.75%

Compound: CN(CC(=O)N1CCOCC(CO)C1)Cc1ccc(F)cc1 (stereo not given)
Mtb cholesterol medium: 6.793%
Mtb glucose medium: -20.99%

Compound: CN(C)CCOCc1nnc2n1CCN(Cc1ccsc1)C2.O=C(O)C(F)(F)F.O=C(O)C(F)(F)F
Mtb cholesterol medium: -9.905%
Mtb glucose medium: -53.26% and -12.82%

Compound: CN1CCC(NC(=O)Nc2ccc(F)c(-n3cccc3)c2)C1=O (stereo not given)
Mtb cholesterol medium: 4.033%
Mtb glucose medium: 7.496%

Compound: CN(C)C(=O)c1cccc(NC(=O)CN2CCCCC2C2OCCO2)c1 (stereo not given)
Mtb cholesterol medium: 4.486%
Mtb glucose medium: -14.75% and -12.54%

Compound: CCn1c(=O)n(Cc2nc(C3CC3)no2)c2ccccc21
Mtb cholesterol medium: 8.271%
Mtb glucose medium: 38.79%

Compound: CS(=O)(=O)NCC1CCCN(C(=O)Nc2cccc3ccccc23)C1 (stereo not given)
Mtb cholesterol medium: 11.21%
Mtb glucose medium: 15.31%

Compound: CN(Cc1ccc(Br)s1)Cn1nc(-c2ccc(F)cc2)oc1=O
Mtb cholesterol medium: -1.253%
Mtb glucose medium: 1.214%

Compound: Cn1cccc(NC(=O)N2CCC(Cc3ccccc3)C2)c1=O (stereo not given)
Mtb cholesterol medium: -30.75%
Mtb glucose medium: -9.117%

Compound: CNC(=O)CCCNCc1c(C(C)C)nn(C)c1N(C)C
Mtb cholesterol medium: -16.42%
Mtb glucose medium: 9.283%

Compound: [H][C@]12CC[C@]([H])(CN(C(=O)C3CCC3)C1)N(C(=O)c1cccc(OCC)c1)C2
Mtb cholesterol medium: -4.972% and -18.13%
Mtb glucose medium: -14.72%

Compound: Oc1cc(CN2CCC(O)(Cn3ccnc3)CC2)nc2ccc(F)cc12
Mtb cholesterol medium: 5.124%
Mtb glucose medium: 2.252%

Compound: O=C1CN(Cc2cn(C3CCN(C4CSCCSC4)CC3)nn2)CCN1
Mtb cholesterol medium: 6.618%
Mtb glucose medium: 7.997% and -4.937%

Compound: Cc1nc(-c2ccc(Cl)cc2)n(CC(=O)NC(C)C)c(=O)c1CCO
Mtb cholesterol medium: -5.217%
Mtb glucose medium: 2.452%

Compound: CC(C)NC(=O)N1CCC[C@H]1C(=O)NCCCc1cnn(C)c1
Mtb cholesterol medium: -3.049%
Mtb glucose medium: 7.485%

Compound: O=C1CC2(CCCCC2)CC(=O)N1CC(O)COCc1ccc(Cl)cc1 (stereo not given)
Mtb cholesterol medium: 12.4%
Mtb glucose medium: 23.54%

Compound: O=C(c1coc2ccccc12)N1CCCC(O)(CO)CC1 (stereo not given)
Mtb cholesterol medium: 7.112%
Mtb glucose medium: 16.9%

Compound: Cn1ncc2c(NCCOc3ccc(F)cc3)nc(C3CCCC3)nc21
Mtb cholesterol medium: 28.44%
Mtb glucose medium: 43.92% and 23.67%

Compound: Cc1n[nH]c(=O)c2c(NC(=O)CN3CCOCC3C)oc(C)c12 (stereo not given)
Mtb cholesterol medium: -24.72%
Mtb glucose medium: -42.57%

Compound: CCn1c(CN(C)C)nnc1C1CCN(Cc2ccccc2)CC1
Mtb cholesterol medium: -3.049%
Mtb glucose medium: 2.966%

Compound: Cc1nc(C(Cc2ccsc2)NC(=O)CN2CCOCC2)sc1C (stereo not given)
Mtb cholesterol medium: 0.3046% and -8.099%
Mtb glucose medium: -1.274%

Compound: Cc1nnc(SCCCNc2cc(C3CC3)ncn2)s1
Mtb cholesterol medium: 44%
Mtb glucose medium: 17.42%

Compound: O=C(NCCN1CCNC1=O)c1cnc(-c2cccnc2)nc1
Mtb cholesterol medium: 18.55%
Mtb glucose medium: 6.132%

Compound: CNC(=O)C1CCN(C(=O)c2coc(COc3ccc(OC)cc3)n2)C1 (stereo not given)
Mtb cholesterol medium: -2.999% and -31.49%
Mtb glucose medium: -31.99%

Compound: COc1ncnc2c1CCN(Cc1nccs1)CC2.O=C(O)C(F)(F)F
Mtb cholesterol medium: -20.32%
Mtb glucose medium: -13.94%

For reference, 2 entries once more:

Result for Cn1cccc(NC(=O)N2CCC(Cc3ccccc3)C2)c1=O (stereo not given) was Mtb cholesterol medium: -30.75%; Mtb glucose medium: -9.117%.
Result for O=C(O)C(F)(F)F.[H][C@]12CC[C@@]3(N=C(CC)N(CC)C3=O)[C@@]1([H])CN(CC1CC1)C2 was Mtb cholesterol medium: -14.2%; Mtb glucose medium: -11.91%.

From ChEMBL document CHEMBL3988442, “University of Dundee, Small-Polar-MMV Screening Library” (2021).